In one experiment the target is T1, GST-fused CPVL (human) (UniProt Q9H3G5).
T1 sequence: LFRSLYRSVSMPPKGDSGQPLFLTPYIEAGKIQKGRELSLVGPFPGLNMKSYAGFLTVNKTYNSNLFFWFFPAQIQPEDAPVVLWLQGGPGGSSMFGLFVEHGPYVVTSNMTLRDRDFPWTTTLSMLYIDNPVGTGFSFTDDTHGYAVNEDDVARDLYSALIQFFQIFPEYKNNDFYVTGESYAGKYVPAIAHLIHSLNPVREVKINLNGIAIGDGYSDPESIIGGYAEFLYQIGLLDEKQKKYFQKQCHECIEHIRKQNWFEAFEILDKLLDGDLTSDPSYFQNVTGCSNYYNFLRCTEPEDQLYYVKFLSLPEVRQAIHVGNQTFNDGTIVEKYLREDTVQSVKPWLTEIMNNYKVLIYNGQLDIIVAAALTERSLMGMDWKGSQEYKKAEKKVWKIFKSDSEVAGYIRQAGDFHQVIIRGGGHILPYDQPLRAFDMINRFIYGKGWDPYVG
The experiment in a line: pull-down; about 10 ug GST fusion protein (from crude E. coli BL21 lysate) mixed with 5-8 uL in vitro transcribed/translated product in 0.8% BSA in PBS; glutathione-Sepharose beads, 4 C, 2 hours; 5 washes; Western blot. For orientation: Immunoblotting shows a protein as a band on a membrane.

Protein sequences, listed by entry. Tags and fused reporters are not part of them.
UniProt Q06187: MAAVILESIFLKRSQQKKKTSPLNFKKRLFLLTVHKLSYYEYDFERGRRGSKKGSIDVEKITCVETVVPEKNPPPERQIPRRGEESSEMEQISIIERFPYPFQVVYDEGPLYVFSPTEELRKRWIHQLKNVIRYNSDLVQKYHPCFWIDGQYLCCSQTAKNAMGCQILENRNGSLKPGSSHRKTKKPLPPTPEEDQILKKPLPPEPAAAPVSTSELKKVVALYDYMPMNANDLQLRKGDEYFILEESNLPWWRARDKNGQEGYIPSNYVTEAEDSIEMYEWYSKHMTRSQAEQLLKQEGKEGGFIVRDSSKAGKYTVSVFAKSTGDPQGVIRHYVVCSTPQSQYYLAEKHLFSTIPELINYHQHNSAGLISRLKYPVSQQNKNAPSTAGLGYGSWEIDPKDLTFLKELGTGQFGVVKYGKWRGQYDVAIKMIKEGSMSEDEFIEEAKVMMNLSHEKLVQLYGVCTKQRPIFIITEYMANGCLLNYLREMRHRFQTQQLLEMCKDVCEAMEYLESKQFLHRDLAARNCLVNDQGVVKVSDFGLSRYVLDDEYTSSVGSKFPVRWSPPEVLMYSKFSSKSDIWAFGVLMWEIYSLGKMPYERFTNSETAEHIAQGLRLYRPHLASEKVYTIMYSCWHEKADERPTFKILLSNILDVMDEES
UniProt O60828: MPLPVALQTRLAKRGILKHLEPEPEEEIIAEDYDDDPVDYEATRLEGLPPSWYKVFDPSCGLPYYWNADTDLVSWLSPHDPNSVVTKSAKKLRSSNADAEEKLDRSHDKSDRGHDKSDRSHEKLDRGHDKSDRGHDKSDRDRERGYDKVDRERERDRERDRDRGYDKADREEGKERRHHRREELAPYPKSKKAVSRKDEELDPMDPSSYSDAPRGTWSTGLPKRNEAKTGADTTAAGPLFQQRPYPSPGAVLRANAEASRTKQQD

The target in experiment [1] is T2, FLAG-CPVL (carboxypeptidase, vitellogenic-like) (human) (UniProt Q9H3G5).
T2 sequence: T1 sequence
The experiment in a line: co-IP; whole-cell lysates of U251 cells transfected with FLAG-vector or FLAG-CPVL; IP with anti-FLAG antibody, immunoblot with antibodies against the indicated proteins.

For the next experiment, the target named is GST-fused BTK (UniProt Q06187). Briefly: pull-down; about 10 ug GST fusion protein (from crude E. coli BL21 lysate) mixed with 5-8 uL in vitro transcribed/translated product in 0.8% BSA in PBS; glutathione-Sepharose beads, 4 C, 2 hours; 5 washes; Western blot.

Among the data in article PMC8783677 are binding values, retold here.

These are yes or no findings as the source states them, for the method shown. Binding seen in cells or lysates may run through a third protein. Some entries that bind do so weakly or less than the wild type. For some assays here: Tags and fused reporters may be left off the sequences shown.

Consider “in vitro transcribed/translated BTK (from UniProt Q06187 1-659) (enzyme)”, for which, in the experiment with GST-fused CPVL (human), the binding entry is recorded as “binds”.

For PQBP1 (from UniProt O60828 1-265), in experiment [1], the binding result is “binds”.

As for “Bruton's tyrosine kinase (BTK) (from UniProt Q06187 1-659) (enzyme)”, the binding result in experiment [1] is listed as “binds”.

B1: MICA (protein, UniProt Q29983 24-383)
chain: EPHSLRYNLTVLSWDGSVQSGFLTEVHLDGQPFLRCDRQKCRAKPQGQWAEDVLGNKTWDRETRDLTGNGKDLRMTLAHIKDQKEGLHSLQEIRVCEIHEDNSTRSSQHFYYDGELFLSQNLETKEWTMPQSSRAQTLAMNVRNFLKEDAMKTKTHYHAMHADCLQELRRYLKSGVVLRRTVPPMVNVTRSEASEGNITVTCRASGFYPWNITLSWRQDGVSLSHDTQQWGDVLPDGNGTYQTWVATRICQGEEQRFTCYMEHSGNHSTHPVPSGKVLVLQSHWQTFHVSAVAAAAIFVIIIFYVRCCKKKTSAAEGPELVSLQVLDQHPVGTSDHRDATQLGFQPLMSDLGSTGSTEGA
For B1, in experiment [1], the binding result is “binds”.

B2: in vitro transcribed/translated CPVL (protein, UniProt Q9H3G5 1-476)
chain: MVGAMWKVIVSLVLLMPGPCDGLFRSLYRSVSMPPKGDSGQPLFLTPYIEAGKIQKGRELSLVGPFPGLNMKSYAGFLTVNKTYNSNLFFWFFPAQIQPEDAPVVLWLQGGPGGSSMFGLFVEHGPYVVTSNMTLRDRDFPWTTTLSMLYIDNPVGTGFSFTDDTHGYAVNEDDVARDLYSALIQFFQIFPEYKNNDFYVTGESYAGKYVPAIAHLIHSLNPVREVKINLNGIAIGDGYSDPESIIGGYAEFLYQIGLLDEKQKKYFQKQCHECIEHIRKQNWFEAFEILDKLLDGDLTSDPSYFQNVTGCSNYYNFLRCTEPEDQLYYVKFLSLPEVRQAIHVGNQTFNDGTIVEKYLREDTVQSVKPWLTEIMNNYKVLIYNGQLDIIVAAALTERSLMGMDWKGSQEYKKAEKKVWKIFKSDSEVAGYIRQAGDFHQVIIRGGGHILPYDQPLRAFDMINRFIYGKGWDPYVG
On to B2, for which the binding entry with GST-fused BTK is listed as “binds”.
